Assay results: patent US20150374709A1, “TETRA-SUBSTITUTED NDGA DERIVATIVES VIA ETHER BONDS AND CARBAMATE BONDS AND THEIR SYNTHESIS AND PHARMACEUTICAL USE” (ERIMOS PHARMACEUTICALS LLC, priority 2006, published 2015)

Test: Caco-2 monolayer bidirectional permeability
Type: in vitro ADME
Conditions: human, Caco-2, pH 7.4, control P-gp substrate, read-out: Polarization Ratio mean (B-A/A-B)
Method: Permeability studies were conducted by an outside contractor on behalf of the assignee of the present invention and application to determine the permeability of Compound A through Caco-2 monolayers. An important factor of oral bioavailability is the ability of e compound to be absorbed in the small intestine. […] Monolayer integrity was evaluated by pre-experimental trans-epithelial electrical resistance (TEER) measurements and post-experimental lucifer yellow A to B flux determinations. […] The donor and receiver solutions were added to the apical or basolateral chambers of the monolayers (depending on the direction of transport to be measured). […] Samples were analyzed by LC/MS/MS using peak area ratios to an internal standard. Test article concentrations were calculated based on the peak area ratios obtained for appropriate dilutions of the donor solution containing the test article at the nominal concentration in transport buffer. […] Comparator and control samples were analyzed by liquid scintillation counting. Lucifer yellow concentrations were determined using a fluorescence plate reader.

C[C@H]1O[C@@H](O[C@H]2[C@@H](O)C[C@H](O[C@H]3[C@@H](O)C[C@H](O[C@H]4CC[C@@]5(C)[C@H](CC[C@@H]6[C@@H]5C[C@@H](O)[C@]5(C)[C@@H](C7=CC(=O)OC7)CC[C@]65O)C4)O[C@@H]3C)O[C@@H]2C)C[C@H](O)[C@@H]1O [digoxin, reference compound]
efflux ratio at 90 min, 5 μM: 5.4
